In PubChem BioAssay AID504847 (National Center for Advancing Translational Sciences (NCATS), 2011):
Several values for one entry are separate records, joined by “and”; a condition that tells them apart may be missing. Identical values can stand only once. Screen size: about 400,000 compounds; about 3,700 (0.93%) were called active. Inconclusive means that the source gave no clear call. Such entries were picked first, then a sample of the others. Calls come from the whole dose curve; as a rule, active = well fitted inhibition curve with a large enough effect; inconclusive = small, poorly fitted or top-dose-only effect, or another doubt; inactive = no such curve, though single readings can be large or run the other way. Where the call is inconclusive, the potency comes from a doubtful curve fit.

Amino acid sequences for entries named in this document (tags omitted).
UniProt P11473, whole entry, looked up: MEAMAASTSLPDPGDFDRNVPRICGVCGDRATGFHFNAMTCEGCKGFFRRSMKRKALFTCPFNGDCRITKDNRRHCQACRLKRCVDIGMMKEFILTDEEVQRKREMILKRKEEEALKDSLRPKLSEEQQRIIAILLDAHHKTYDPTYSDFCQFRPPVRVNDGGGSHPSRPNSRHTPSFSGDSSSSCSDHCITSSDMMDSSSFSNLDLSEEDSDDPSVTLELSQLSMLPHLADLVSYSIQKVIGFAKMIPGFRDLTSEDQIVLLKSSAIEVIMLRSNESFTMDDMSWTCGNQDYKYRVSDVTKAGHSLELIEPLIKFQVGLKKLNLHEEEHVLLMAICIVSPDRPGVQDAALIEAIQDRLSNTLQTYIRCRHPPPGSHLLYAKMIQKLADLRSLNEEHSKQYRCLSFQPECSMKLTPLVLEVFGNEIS

What follows are compounds tested against Vitamin D3 receptor (Homo sapiens) (UniProt P11473) (assay: Inhibitors of the vitamin D receptor (VDR): qHTS). Conditions: VDR-SRC2-3 peptide fluorescence polarization, 2 h; max response, negative = inhibition: hits give low values.
Procedure, shortened: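 FP read-out; VDR + SRC2-3 coactivator peptide; 23 nl compound by pintool; 2 h RT incubation; reagents held at 4 deg C, protected from light.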
% is set by controls: 0 for no effect and ±100 for the full control effect; potency is the fitted concentration of half-maximal effect.

SMILES | Potency | max response, negative = inhibition
COc1ccc(C(=O)CNc2ccccc2Br)cc1 | inconclusive: 79.4 µM [inhibitor, partial curve, poor fit] | –
Cc1noc(C)c1CSc1nnc(-c2ccccc2)n1N | inconclusive: 56.2 µM [inhibitor, partial curve, poor fit] | –
CC(=O)C1=C(c2cccc([N+](=O)[O-])c2)N(C(C)=O)n2c(C)nnc2S1 | inconclusive: 22.4 µM [inhibitor, single point] | –
CC(=O)Oc1cccc2c1C(=O)c1c(OC(C)=O)cc(C(=O)O)cc1C2=O | inconclusive: 50.1 µM [inhibitor, partial curve, poor fit] | –
Cc1ccc2c(c1)c1n[nH]c(=S)nc1n2CCc1ccccc1 | inconclusive: 89.1 µM [inhibitor, partial curve, poor fit] | –
CC(=O)N1C(=O)/C(=C2\SC(=S)N(c3c(C)n(C)n(-c4ccccc4)c3=O)C2=O)c2ccccc21 | inconclusive: 17.8 µM [inhibitor, full curve, poor fit] | –
COc1ccc2c(c1O)Cc1ccccc1C2=O | – | inactive: 2.87%
COCCCNC(=O)c1ccccc1C(F)(F)F | inconclusive: 31.6 µM [inhibitor, partial curve, poor fit] | –
O=S1(=O)C=C(Sc2nc3cc(Cl)ccc3o2)c2ccccc21 | inconclusive: 12.6 µM [inhibitor, partial curve, poor fit] | –
COc1cccc(C2C(C(=O)OC(C)C)=C(C)N=c3s/c(=C\c4ccc(C(=O)O)cc4)c(=O)n32)c1 (stereo not drawn) | active: 89.1 µM | –
CCSC1=N/C(=C\c2ccc(C(=O)O)cc2)C(=O)S1 | – | inactive: -6.2%
O=C(CN1C(=O)CSc2ncccc21)NCCN1CCOCC1 | – | inactive: 6.8%
O=C1C2=C(S[C@@H]3O[C@H](CO)[C@@H](O)[C@H](O)[C@H]3O2)C(=O)c2ccccc21 | active: 35.5 µM | –
COc1ccc(NC(=O)c2cc(-c3ccncc3)nc3ccccc23)c(OC)c1 | – | inactive: 7.33%
Cc1ccccc1NC(=O)CN1C(=O)C2C3CC(C(Br)C3Br)C2C1=O (stereo not drawn) | active: 79.4 µM | –
CCN(CC)S(=O)(=O)c1ccc(OCC(=O)NC(=O)c2ccccc2OC)c([N+](=O)[O-])c1 | inconclusive: 89.1 µM [inhibitor, single point] | –
O=C(CSc1nc2ccccc2c(=O)n1-c1ccccc1)c1c[nH]c2ccccc12 | inconclusive: 89.1 µM [inhibitor, single point] | –
CCCc1nnc(NS(=O)(=O)c2ccccc2)s1 | – | inactive: 8.47%
Cc1c(C)c2c(OCC(=O)NCC(=O)NCC(=O)O)cc3c(c2oc1=O)CCC(C)(C)O3 | inconclusive: 25.1 µM [inhibitor, partial curve, poor fit] | –
COc1cc(NC(=S)N2CCN(c3ccccn3)CC2)c(OC)cc1Cl | inconclusive: 100 µM [inhibitor, single point] | –
CC(C)(C)c1cc(CNC2CS(=O)(=O)C[C@@H]2O)cc(C(C)(C)C)c1O (stereo partly drawn) | active: 50.1 µM | –

SMILES | Potency | max response, negative = inhibition
Cc1ccc(NC(=S)NNC(=S)NC2CCCCC2)cc1 | inconclusive: 89.1 µM [inhibitor, single point] | –
O=C(O)CN1C(=O)/C(=C\c2cc(Br)ccc2OCc2ccc(Cl)cc2)SC1=S | active: 39.8 µM | –
COc1cc(/C=C2\COC/C(=C\c3cc(OC)c(OC)c(OC)c3)C2=O)cc(OC)c1OC | inconclusive: 15.8 µM [inhibitor, partial curve, poor fit] | –
O=C1/C(=C\c2ccc(Cl)cc2)CCC1CNc1ccc(Cl)cc1 (stereo not drawn) | inconclusive: 89.1 µM [inhibitor, partial curve] | –
CCCCC(C)(O)C/C=C/[C@H]1[C@H](O)CC(=O)[C@@H]1CCCCCCC(=O)OC (stereo partly drawn) | inconclusive: 89.1 µM [inhibitor, single point] | –
Cc1ccc(NC(=O)Cc2ccc(-n3cccc3)cc2)c(C)c1 | – | inactive: -2.46%
Cc1cc(C(=O)Cn2cc(C(F)(F)F)ccc2=O)c(C)n1-c1ccccc1 | inconclusive: 79.4 µM [inhibitor, single point] | –
CN1CCN(C(=S)C(=O)Nc2ccc(Br)cc2)CC1 | inconclusive: 15.8 µM [inhibitor, full curve, poor fit] | –
Cc1ncc([N+](=O)[O-])n1CCOC(=O)NC(NCc1cccnc1)C(Cl)(Cl)Cl (stereo not drawn) | inconclusive: 39.8 µM [inhibitor, single point] | –
C#CCOCCOCCOCCNc1nc(N2CCN(C(=O)[C@H]([C@@H](C)CC)n3cc([C@@H](N)Cc4ccc(O)cc4)nn3)CC2)nc(N2CCN(C(=O)[C@H](Cc3ccc(O)cc3)n3cc([C@@H](N)CC(C)C)nn3)CC2)n1 | – | inactive: -0.447%
CCOc1ccc(NC(=O)COc2ccccc2)c([N+](=O)[O-])c1 | inconclusive: 70.8 µM [inhibitor, single point] | –
Cc1ccsc1-c1ccnc(-n2cccc2)n1 | inconclusive: 79.4 µM [inhibitor, partial curve] | –
COc1ccc(C(=O)C2CCCN(C(=O)c3ccc(CSC)o3)C2)cc1F (stereo not drawn) | inconclusive: 89.1 µM [inhibitor, single point] | –
COc1cc(CNCCCSc2nnnn2C)cc(Br)c1OC | – | inactive: 3.29%
Nc1scc2c(C(=O)N/N=C/c3ccc(Cl)cc3)nn(-c3ccccc3)c(=O)c12 | inconclusive: 28.2 µM [inhibitor, full curve, poor fit] | –
O=C(O)c1ccc(-n2c(=O)c3ccccc3c3ccccc3c2=O)cc1 | inconclusive: 79.4 µM [inhibitor, partial curve] | –
O=C(O)CN1C(=O)/C(=C\c2ccccc2OCc2ccc(Cl)cc2Cl)SC1=S | inconclusive: 44.7 µM [inhibitor, partial curve, poor fit] | –
COCC(=O)N1CCC2(CCN(Cc3ccncc3)CC2)CC1 | inconclusive: 79.4 µM [inhibitor, single point] | –
Cc1cc(C#N)c(C)n1-c1cc(S(=O)(=O)N2CCOCC2)ccc1N1CCCC1 | inconclusive: 56.2 µM [inhibitor, partial curve, poor fit] | –
CCOc1ccc(N(C(C)C(=O)N2CCCC2)S(C)(=O)=O)cc1 (stereo not drawn) | inconclusive: 79.4 µM [inhibitor, single point] | –
Cc1ccc2c(c1)-c1nc(-c3ccccc3)cc(-c3ccccc3)c1CO2 | – | inactive: -0.183%

SMILES | Potency | max response, negative = inhibition
CCOc1cccc(/C=C(/C#N)c2nc3ccccc3[nH]2)c1OCC(=O)O | inconclusive: 44.7 µM [inhibitor, partial curve, poor fit] | –
O=C(Nc1nnc(-c2ccc3c(c2)CCCC3)o1)C1COc2ccccc2O1 (stereo not drawn) | – | inactive: -7.51%
O=c1[nH]c(=S)[nH]c2sc3c(c12)CCCCCC3 | inconclusive: 79.4 µM [inhibitor, partial curve, poor fit] | –
Cc1ccc(S(=O)(=O)N2[C@@H](c3ccc(Cl)c(Cl)c3)C(C(=O)O)=C[C@H]2C(C)(C)C)cc1 | inconclusive: 56.2 µM [inhibitor, partial curve, poor fit] | –
CCOC(=O)c1sc(NC(=O)C2=COCCO2)c(C#N)c1C | inconclusive: 89.1 µM [inhibitor, single point] | –
S=c1[nH]nc(COc2ccccc2)n1/N=C/C(Cl)=C/c1ccccc1 | inconclusive: 89.1 µM [inhibitor, partial curve, poor fit] | –
O=c1ccc(Cl)nn1-c1ccccc1 | inconclusive: 70.8 µM [inhibitor, single point] | –
c1ccc(CNc2ccnc(-c3cccnc3)n2)cc1 | active: 39.8 µM | –
CC(C)(C)OC(=O)NCCCCCNC(=O)c1[nH]cnc1C(=O)Nc1ccon1 | – | inactive: 7.27%
CCn1cc(C(=O)N2CCN(c3ccccc3OC)CC2)c2cc(OC)c(OC)cc2c1=O | inconclusive: 8.91 µM [inhibitor, partial curve, poor fit] | –
CC1=C(\C=C/C(C)=C/C=C\C(C)=C\C(=O)O)C(C)(C)CCC1 | active: 14.1 µM and active: 17.8 µM | –
CC(C)CCn1c(N2CCCC2)nc2c1c(=O)n(C)c(=O)n2C | inconclusive: 100 µM [inhibitor, single point] | –
CCOC(=O)c1cc(-c2cc3ccccc3o2)n[nH]1 | inconclusive: 1.41 µM [inhibitor, partial curve, poor fit] | –
Cc1ccc(OC(=O)c2ccc3nc(C)sc3c2)cc1 | inconclusive: 89.1 µM [inhibitor, single point] | –
O=C(Nc1ccc(Cl)cc1)Nc1ccccc1CC[N+](=O)[O-] | inconclusive: 35.5 µM [inhibitor, single point] | –
O=C(NCCN1CCOCC1)c1nn2c(c1Cl)NC(c1ccccc1)CC2C(F)(F)F (stereo not drawn) | inconclusive: 100 µM [inhibitor, single point] | –
COc1ccc(N2CCN(C(=S)Nc3ccc(S(N)(=O)=O)cc3)CC2)cc1 | inconclusive: 56.2 µM [inhibitor, partial curve, poor fit] | –
Cc1ccccc1NC(=O)/C(C#N)=C/c1ccccc1C(F)(F)F | inconclusive: 79.4 µM [inhibitor, single point] | –
CC1CCCN(C2(O)C(=O)Nc3ccc([N+](=O)[O-])cc32)C1 (stereo not drawn) | – | inactive: 2.63%
O=C1CC(c2ccccc2)CC(=O)C1CS(=O)(=O)c1ccccc1 (stereo not drawn) | active: 31.6 µM | –
FC(F)(F)c1ccccc1NC(=S)Nn1cnnc1 | inconclusive: 89.1 µM [inhibitor, partial curve, poor fit] | –
